Measurements published in US12466850B2 (priority 2019, dated 2025).

Assay: general procedure: solution-phase peptide synthesis; (1-cyano-2-ethoxy-2-oxoethylideneaminooxy)dimethylamino-morpholino-carbenium hex
Conditions: coupling step

Row | Substance | step yield (two-step yield) [%] | step yield (four-step yield) [%]
1 | Boc-Val-Pro-Phe-Phe-OFESE | 91 | 
2 | Cbz-Ser(t-Bu)-Dap(Boc)-Val-Pro-Phe-Phe-OFESE |  | 78
